# Laboratory results from PubChem BioAssay AID540256 (National Center for Advancing Translational Sciences (NCATS), 2011).
# Screen size: about 300,000 compounds; about 3,700 (1.2%) were called active. Inconclusive means that the source gave no clear call. Such entries were picked first, then a sample of the others. Calls follow the shape of the full dose curve; tested in HEK293 cells. Potencies of inconclusive entries are doubtful fits and often do not repeat.
# Assay: qHTS for Inhibitors of binding or entry into cells for Lassa Virus; also: nearly all actives have a fitted effect of over 50% in size
# Settings: Lassa virus pseudotype entry inhibition, cell reporter; activity change, negative = inhibition: at 37.9 µM (top of the series) unless noted
# % is scaled to controls: 0 for no effect and ±100 for the full control effect; potency is read from the fitted curve at half-maximal effect.
Structure (SMILES),Potency,"activity change, negative = inhibition"
CS(=O)(=O)N(CC(=O)N1CCC(C(N)=O)CC1)C1CCCCC1,"inconclusive: 18.3 µM [activator, partial curve, poor fit]",
O=C(/C=C/c1cc([N+](=O)[O-])ccc1OC(F)F)Nc1ccc(OC(F)F)cc1,"inconclusive: 11.6 µM [inhibitor, partial curve, poor fit]",
Cc1cccc(NS(=O)(=O)c2cccc(C(=O)NCC(C)(C)N3CCOCC3)c2)c1,"inconclusive: 35.5 µM [inhibitor, partial curve, poor fit]",
CCN1CCC(C(=O)Nc2n[nH]c3nnc(-c4cccc(F)c4F)cc23)CC1,"inconclusive: 9.96 µM [inhibitor, full curve, poor fit]",
C=CCOc1ccc(/C=N/NC(=O)C(C)Sc2ccccn2)cc1OCC (stereo not given),"inconclusive: 29.1 µM [inhibitor, partial curve, poor fit]",
CCOC(=O)c1nnn(-c2nonc2-n2cccc2)c1CN1CCC(C)CC1,"inconclusive: 35.5 µM [inhibitor, single point]",
O=C(Nc1nc(-c2ccco2)cs1)c1ccccc1,"inconclusive: 1.58 µM [activator, partial curve]",
O=C(O)CN(CCOCCOCCN(CC(=O)O)CC(=O)O)CC(=O)O,"inconclusive: 23.1 µM [activator, single point]",
CC1CCN(C(C(=O)NC2CCCCC2)c2cc3c(cc2[N+](=O)[O-])OCO3)CC1 (stereo not given),,inactive: 3.44%
COc1cc([C@@H]2c3cc4c(cc3[C@H](O)[C@H]3COC(=O)[C@H]23)OCO4)cc(OC)c1OC,"inconclusive: 0.0146 µM [inhibitor, full curve]",
O=C(COC(=O)CCSc1ccccc1Cl)NCc1ccco1,,inactive: 3.67%
CCN(CC)S(=O)(=O)c1ccc(C)c(NC(=O)/C=C/c2cccs2)c1,"inconclusive: 18.4 µM [inhibitor, partial curve, poor fit]",
O=C1CSC(=S)N1c1cccnc1,"inconclusive: 9.2 µM [inhibitor, partial curve, poor fit]",
c1ccc(-c2noc(C3CCC3)n2)nc1,"inconclusive: 3.55 µM [activator, single point]",
CS(=O)(=O)c1ccc2nc(NC(=O)c3cccs3)sc2c1,"inconclusive: 5.62 µM [inhibitor, partial curve, poor fit]",
CCOc1ccccc1OCCCOc1ccc(C)cc1Cl,"inconclusive: 1.78 µM [activator, partial curve, poor fit]",
O=C(CCCSc1nc2ccccc2c(=O)[nH]1)c1ccc(F)cc1,"inconclusive: 20 µM [inhibitor, partial curve, poor fit]",
O=C(CSc1nc2ccccc2o1)N1CCCC1,,inactive: 5.15%
COCCn1c(C)cc(O)c(C(c2ccccc2)N2CCN(c3ccccc3F)CC2)c1=O (stereo not given),"inconclusive: 3.16 µM [activator, partial curve, poor fit]",
Cc1ccc(CNC(=S)NCc2ccncc2)cc1,"inconclusive: 35.5 µM [inhibitor, single point]",

# Single values from the entries so far:
# In Potency, `COc1cc([C@@H]2c3cc4c(cc3[C@H](O)[C@H]3COC(=O)[C@H]23)OCO4)cc(OC)c1OC` is entered as inconclusive: 0.0146 µM [inhibitor, full curve]
# In Potency, `CCN1CCC(C(=O)Nc2n[nH]c3nnc(-c4cccc(F)c4F)cc23)CC1` is entered as inconclusive: 9.96 µM [inhibitor, full curve, poor fit]
# In Potency, `COCCn1c(C)cc(O)c(C(c2ccccc2)N2CCN(c3ccccc3F)CC2)c1=O` (stereo not given) is entered as inconclusive: 3.16 µM [activator, partial curve, poor fit]

# Continuation:

Structure (SMILES),Potency,"activity change, negative = inhibition"
COc1ccc(NC(=O)C(C)N2C(=O)C3CC=C(Cl)CC3C2=O)cc1 (stereo not given),"inconclusive: 7.08 µM [activator, partial curve, poor fit]",
COc1cc(OC)cc(C(=O)Nn2cc(C(=O)N3CCN(C)CC3)c3ccccc3c2=O)c1,,inactive: 10.8%
CCOC(=O)C1CCN(C(=O)CC(NS(=O)(=O)c2ccc(OC)cc2)C(C)C)CC1 (stereo not given),"inconclusive: 11.2 µM [inhibitor, single point]",
O=C(CSc1cn(CCNC(=O)c2ccccc2F)c2ccccc12)Nc1ccc2c(c1)OCCO2,,inactive: -26.2% [at 46.1 µM]
c1ccc(-n2ncc3c(NCCCN4CCOCC4)ncnc32)cc1,"inconclusive: 4.11 µM [activator, partial curve, poor fit]",
COC(=O)C1=C(C(=O)OC)SC(=C2C(=S)C(C)(C)N(C(=O)C(C)C)c3ccccc32)S1,"inconclusive: 29.1 µM [inhibitor, single point]",
ON/C=N/C(=S)Nc1ncc(C(F)(F)F)cc1Cl,,inactive: 1.35% [at 46.1 µM]
O=C(N/N=C/c1cccc(OCc2ccccc2)c1)c1ccc(Br)o1,"inconclusive: 2 µM [inhibitor, partial curve, poor fit]",
CCN(CC)CCN(Cc1cc2cc3c(cc2[nH]c1=O)OCO3)C(=S)NCc1ccco1,"inconclusive: 35.5 µM [inhibitor, single point]",
CCCS(=O)(=O)c1c(S(=O)(=O)CCC)c2c(N)cccn2c1C(=O)c1ccc(Br)cc1,"inconclusive: 2 µM [inhibitor, full curve]",
Nc1nc(SCc2ccc(Cl)c(Cl)c2)n[nH]1,,inactive: 1.57%
Cc1cc(C)cc(N(CC(=O)Nc2ccccc2-c2ccccc2)S(=O)(=O)c2ccccc2)c1,,inactive: 20.5%
Cc1c(NC(=O)C(C)OC(=O)CCOc2ccccc2)c(=O)n(-c2ccccc2)n1C (stereo not given),"inconclusive: 1.12 µM [inhibitor, single point]",
CCc1ccc2nc(SCC(=O)N3CCCCC3)c(C#N)cc2c1,"inconclusive: 29.1 µM [inhibitor, single point]",
CC(Oc1ccc(-c2ccccc2)c(F)c1)c1ccn(S(=O)(=O)c2ccc(F)cc2)n1 (stereo not given),,inactive: -18.8%
Cc1cccc2cc(CN(CC3CCCO3)C(=S)Nc3ccccc3)c(=O)[nH]c12 (stereo not given),"inconclusive: 25.1 µM [inhibitor, single point]",
O=C(COC(=O)C1CCCO1)Nc1cccc(C(F)(F)F)c1 (stereo not given),"inconclusive: 0.58 µM [activator, full curve, poor fit]",
CCOC(=O)Nc1sc(C)c(C)c1C(=O)OCC,"inconclusive: 0.1 µM [inhibitor, full curve, poor fit]",
CCC(=NCCCO)c1c(O)n(-c2ccc(OC)cc2)c(=O)[nH]c1=O,"inconclusive: 2.51 µM [inhibitor, partial curve, poor fit]",
Cn1c(N)c(C(=O)COC(=O)Cc2ccccc2)c(=O)n(C)c1=O,"inconclusive: 6.31 µM [activator, partial curve, poor fit]",
